Positions count from the first letter of the chain named. These are yes or no findings as the source states them, for the method shown. Some binding calls cover weakened binding; strength is not graded here. Each block holds one binder with its values, some of them ahead of it.
Target: LRRC33 and human LAP-TGFβ1 co-expressed on P3U1 cells (human) (UniProt Q86YC3)
Assay: flow cytometry, P3U1 cells

The chains behind the UniProt entries cited, without tags or fusion partners. Where a name states a change or a piece, a line headed by the entry shows the natural chain unless it says otherwise.
UniProt Q86YC3: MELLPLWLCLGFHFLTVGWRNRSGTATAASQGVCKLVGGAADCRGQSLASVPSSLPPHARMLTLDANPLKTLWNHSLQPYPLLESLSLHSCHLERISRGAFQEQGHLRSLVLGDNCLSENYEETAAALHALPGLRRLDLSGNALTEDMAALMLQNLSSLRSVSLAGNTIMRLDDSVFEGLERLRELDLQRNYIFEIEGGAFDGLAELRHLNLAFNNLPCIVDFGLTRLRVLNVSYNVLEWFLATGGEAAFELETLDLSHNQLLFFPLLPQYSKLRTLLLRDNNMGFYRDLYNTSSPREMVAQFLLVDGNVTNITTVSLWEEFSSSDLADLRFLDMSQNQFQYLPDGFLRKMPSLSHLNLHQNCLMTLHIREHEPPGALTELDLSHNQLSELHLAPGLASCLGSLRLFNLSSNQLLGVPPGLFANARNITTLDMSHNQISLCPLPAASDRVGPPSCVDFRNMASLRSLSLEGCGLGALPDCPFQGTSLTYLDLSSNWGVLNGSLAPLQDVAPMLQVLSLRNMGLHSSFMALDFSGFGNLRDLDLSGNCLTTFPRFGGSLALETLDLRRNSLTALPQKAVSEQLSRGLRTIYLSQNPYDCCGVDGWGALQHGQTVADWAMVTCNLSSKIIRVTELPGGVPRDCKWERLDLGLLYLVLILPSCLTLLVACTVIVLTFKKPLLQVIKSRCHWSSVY

- binding: binds
B2: 28G11_hIgG1 (antibody, V domains shown)
VH: EVKLVESGGGLVQPGGSLSLSCAASGFTFTDYYMSWVRQPPGKALEWLGFIRNKPNGYTTEYSASVKGRFTISRDNSQSILYLQMNVLRAEDSATYYCARYTGGGYFDYWGQGTTLTVSS
VL: DIQMTQTTSSLSASLGDRLTISCRASQDISNYLNWYQQKPDGTVKLLIYYTSRLHSGVPSRFSGSGSGTDYSLTISNLEQADIATYFCQQGDTLPWTFGGGTKLEIK

- binding: binds
B4: 24E3_hIgG1 (antibody, V domains shown)
VH: QAYLQQSGAELVRPGASVKMSCKASGYTFTSYNMHWVKQTPRQGLEWIGAIYPGNGDTSYNPKFKGKATLTVDKSSSTAYMQLSSLTSEDSAVYFCTRWDWGGYFDVWGTGTTVTVSS
VL: B2 VL with L19V, A81E, E105G

The next lines start with the binder.

B1: 22F9_hIgG1 (antibody, V domains shown)
VH: QVQLQQPGAELVKPGASVKLSCKASGYTFTSYWMHWVKQRPGQGLEWIGMIHPNSGSTNYNEKFKSKATLTVDKSSSTAYMQLSSLTSEDSAVYYCAYYDYDGFFDVWGTGTTVTVSS
VL: DIVLTQSPASLDVSLGQRATISCRASKSVSTSGYSYMHWYQQKSGQPPKLLIYLASNLESGVPARFSGSGSGTHFTLNIHPVEEEDAATYYCQHSRELPYTFGGGTKLEIK
- binding: binds

B3: 17G8_hIgG1 (antibody, V domains shown)
VH: B2 VH with P55A, V87A, T102K, G103L, Y109V, Q112T, L116V
VL: B2 VL with L19V, A81E, D92N
- binding: binds
